Assay results from PMC8675912.
Results are given in words; binding and its absence hold for the method and conditions named. Binding seen in cells or lysates may run through a third protein. Some binding calls cover weakened binding; strength is not graded here.

Amino acid sequences for entries named in this document (tags omitted).
UniProt P29066: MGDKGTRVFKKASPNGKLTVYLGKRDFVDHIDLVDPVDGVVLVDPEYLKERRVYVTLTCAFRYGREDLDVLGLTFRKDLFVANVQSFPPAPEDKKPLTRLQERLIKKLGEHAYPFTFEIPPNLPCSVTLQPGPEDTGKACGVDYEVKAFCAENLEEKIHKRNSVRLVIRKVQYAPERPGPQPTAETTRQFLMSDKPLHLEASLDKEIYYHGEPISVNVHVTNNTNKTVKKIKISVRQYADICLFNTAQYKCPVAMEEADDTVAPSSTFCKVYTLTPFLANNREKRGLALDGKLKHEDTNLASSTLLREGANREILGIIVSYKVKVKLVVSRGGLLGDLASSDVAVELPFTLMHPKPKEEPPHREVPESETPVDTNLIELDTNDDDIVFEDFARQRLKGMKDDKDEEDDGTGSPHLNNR

Biological target: p62/SQSTM1 (UniProt Q13501)
Experiment: co-IP; HeLa-V5-tau cells transiently transfected; lysed in CHAPS buffer (30 mM Tris-Cl pH 7.5, 150 mM NaCl, 1% CHAPS); immunoprecipitation for HA overnight at 4°C, immunoblotting for GFP, HA (and myc); with control vector or β-arrestin1-myc overexpression

binding: binds
Substance: GFP-β-arrestin1 (from UniProt P29066 1-418)
